Source: the supplement of paper PMC6411743
± gives the standard deviation of the averaged measurements. The list shows a part of the results, in another mix than the full data.

Sequences of proteins named here, by UniProt entry; tags and fusion partners are left off. A change or cut given only in a name is not applied to a line headed by its entry.
UniProt Q12765: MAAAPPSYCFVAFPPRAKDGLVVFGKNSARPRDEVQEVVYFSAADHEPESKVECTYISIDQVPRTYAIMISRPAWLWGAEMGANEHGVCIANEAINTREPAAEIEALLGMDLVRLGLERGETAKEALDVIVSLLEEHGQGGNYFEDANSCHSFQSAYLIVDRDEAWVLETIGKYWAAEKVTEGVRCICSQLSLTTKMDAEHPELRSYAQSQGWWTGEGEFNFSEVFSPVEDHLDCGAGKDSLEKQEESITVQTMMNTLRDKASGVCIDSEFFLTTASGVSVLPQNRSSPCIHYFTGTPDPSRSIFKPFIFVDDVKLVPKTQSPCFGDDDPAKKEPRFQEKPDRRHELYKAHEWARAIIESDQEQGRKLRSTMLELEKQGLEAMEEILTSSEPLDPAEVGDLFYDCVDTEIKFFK
UniProt Q13362, whole entry, looked up: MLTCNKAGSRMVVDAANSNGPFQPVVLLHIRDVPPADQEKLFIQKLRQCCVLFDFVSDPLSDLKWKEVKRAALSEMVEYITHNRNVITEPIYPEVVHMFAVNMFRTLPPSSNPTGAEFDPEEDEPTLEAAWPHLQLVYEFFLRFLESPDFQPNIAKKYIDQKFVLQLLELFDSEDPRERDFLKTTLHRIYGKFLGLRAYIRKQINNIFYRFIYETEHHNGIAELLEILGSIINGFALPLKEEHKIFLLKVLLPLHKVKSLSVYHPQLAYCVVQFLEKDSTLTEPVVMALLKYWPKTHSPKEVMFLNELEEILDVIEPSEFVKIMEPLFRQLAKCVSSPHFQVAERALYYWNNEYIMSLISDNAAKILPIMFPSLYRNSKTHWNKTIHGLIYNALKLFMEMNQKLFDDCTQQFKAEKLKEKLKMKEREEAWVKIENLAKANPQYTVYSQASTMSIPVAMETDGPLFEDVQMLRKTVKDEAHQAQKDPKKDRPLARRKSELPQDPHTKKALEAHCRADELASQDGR
UniProt Q02083: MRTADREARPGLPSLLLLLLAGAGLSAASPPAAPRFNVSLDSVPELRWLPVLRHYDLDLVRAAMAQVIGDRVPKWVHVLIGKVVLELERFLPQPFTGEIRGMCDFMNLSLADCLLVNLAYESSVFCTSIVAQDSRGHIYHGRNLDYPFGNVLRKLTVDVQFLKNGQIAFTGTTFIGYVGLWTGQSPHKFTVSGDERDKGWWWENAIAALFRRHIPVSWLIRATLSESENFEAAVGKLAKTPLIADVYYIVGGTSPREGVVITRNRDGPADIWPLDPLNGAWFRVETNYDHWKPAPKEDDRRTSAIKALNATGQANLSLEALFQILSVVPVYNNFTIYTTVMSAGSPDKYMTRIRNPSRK
UniProt Q13884: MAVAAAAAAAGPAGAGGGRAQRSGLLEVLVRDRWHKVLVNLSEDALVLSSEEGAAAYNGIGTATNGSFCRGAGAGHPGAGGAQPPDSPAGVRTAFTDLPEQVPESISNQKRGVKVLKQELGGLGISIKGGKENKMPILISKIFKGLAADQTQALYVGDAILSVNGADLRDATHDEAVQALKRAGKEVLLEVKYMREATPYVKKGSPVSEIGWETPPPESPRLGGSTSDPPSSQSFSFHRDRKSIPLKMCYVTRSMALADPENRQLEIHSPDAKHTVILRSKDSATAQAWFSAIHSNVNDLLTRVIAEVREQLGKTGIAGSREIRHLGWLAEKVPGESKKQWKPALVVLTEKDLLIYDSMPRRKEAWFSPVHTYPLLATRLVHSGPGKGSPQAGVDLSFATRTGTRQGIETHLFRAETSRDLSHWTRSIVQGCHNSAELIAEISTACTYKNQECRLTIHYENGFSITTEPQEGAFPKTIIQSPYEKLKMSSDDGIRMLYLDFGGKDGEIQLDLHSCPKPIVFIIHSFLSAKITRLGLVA
UniProt Q12882: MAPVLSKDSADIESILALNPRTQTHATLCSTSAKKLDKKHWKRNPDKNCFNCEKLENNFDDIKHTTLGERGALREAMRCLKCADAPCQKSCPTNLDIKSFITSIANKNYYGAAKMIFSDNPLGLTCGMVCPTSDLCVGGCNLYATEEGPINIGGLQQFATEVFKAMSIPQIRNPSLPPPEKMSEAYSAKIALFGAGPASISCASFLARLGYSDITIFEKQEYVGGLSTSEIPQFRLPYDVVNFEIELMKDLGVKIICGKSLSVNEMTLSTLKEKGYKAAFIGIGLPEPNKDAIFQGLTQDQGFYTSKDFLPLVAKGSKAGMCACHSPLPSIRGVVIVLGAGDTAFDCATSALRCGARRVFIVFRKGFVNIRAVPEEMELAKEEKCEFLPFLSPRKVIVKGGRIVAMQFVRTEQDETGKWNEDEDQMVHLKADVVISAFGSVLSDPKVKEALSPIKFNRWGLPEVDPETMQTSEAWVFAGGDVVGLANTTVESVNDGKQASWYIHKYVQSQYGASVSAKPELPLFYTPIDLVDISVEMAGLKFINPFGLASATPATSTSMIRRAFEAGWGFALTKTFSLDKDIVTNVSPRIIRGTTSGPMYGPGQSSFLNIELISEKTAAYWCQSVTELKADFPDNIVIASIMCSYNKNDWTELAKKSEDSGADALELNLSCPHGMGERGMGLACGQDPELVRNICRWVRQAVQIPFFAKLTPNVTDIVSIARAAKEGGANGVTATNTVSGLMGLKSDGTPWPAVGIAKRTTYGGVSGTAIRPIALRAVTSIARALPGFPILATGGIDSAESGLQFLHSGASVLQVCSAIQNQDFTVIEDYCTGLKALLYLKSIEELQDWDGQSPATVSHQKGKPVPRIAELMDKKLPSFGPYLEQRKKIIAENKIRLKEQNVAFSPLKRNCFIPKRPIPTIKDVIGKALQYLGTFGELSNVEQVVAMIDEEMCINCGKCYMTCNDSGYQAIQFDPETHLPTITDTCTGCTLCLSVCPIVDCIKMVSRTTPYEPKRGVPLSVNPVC
UniProt Q02535: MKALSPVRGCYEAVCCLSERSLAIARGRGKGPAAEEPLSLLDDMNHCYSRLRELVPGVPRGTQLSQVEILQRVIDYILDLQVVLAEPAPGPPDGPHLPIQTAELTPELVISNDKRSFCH
UniProt Q13422: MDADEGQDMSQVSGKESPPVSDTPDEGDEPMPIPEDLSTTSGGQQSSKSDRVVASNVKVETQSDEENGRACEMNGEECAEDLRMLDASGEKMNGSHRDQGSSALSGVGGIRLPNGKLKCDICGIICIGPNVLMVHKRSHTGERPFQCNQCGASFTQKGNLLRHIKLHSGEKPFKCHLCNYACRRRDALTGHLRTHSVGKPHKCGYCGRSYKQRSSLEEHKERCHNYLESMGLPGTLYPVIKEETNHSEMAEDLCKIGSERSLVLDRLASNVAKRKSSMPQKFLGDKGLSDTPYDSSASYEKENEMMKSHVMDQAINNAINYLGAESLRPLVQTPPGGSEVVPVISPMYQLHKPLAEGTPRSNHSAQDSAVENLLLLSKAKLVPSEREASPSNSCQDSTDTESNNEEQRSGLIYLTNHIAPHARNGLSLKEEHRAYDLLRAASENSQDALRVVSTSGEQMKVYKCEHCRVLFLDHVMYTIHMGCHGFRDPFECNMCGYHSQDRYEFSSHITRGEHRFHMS
UniProt Q13643: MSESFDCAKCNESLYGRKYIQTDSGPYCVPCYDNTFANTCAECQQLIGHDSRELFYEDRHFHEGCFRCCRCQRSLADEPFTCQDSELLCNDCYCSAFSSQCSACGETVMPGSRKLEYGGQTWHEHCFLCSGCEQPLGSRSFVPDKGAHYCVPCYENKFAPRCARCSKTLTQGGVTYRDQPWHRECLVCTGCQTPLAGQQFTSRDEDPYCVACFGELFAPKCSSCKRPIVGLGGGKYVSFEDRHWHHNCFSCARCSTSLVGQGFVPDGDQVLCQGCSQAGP
UniProt Q10472: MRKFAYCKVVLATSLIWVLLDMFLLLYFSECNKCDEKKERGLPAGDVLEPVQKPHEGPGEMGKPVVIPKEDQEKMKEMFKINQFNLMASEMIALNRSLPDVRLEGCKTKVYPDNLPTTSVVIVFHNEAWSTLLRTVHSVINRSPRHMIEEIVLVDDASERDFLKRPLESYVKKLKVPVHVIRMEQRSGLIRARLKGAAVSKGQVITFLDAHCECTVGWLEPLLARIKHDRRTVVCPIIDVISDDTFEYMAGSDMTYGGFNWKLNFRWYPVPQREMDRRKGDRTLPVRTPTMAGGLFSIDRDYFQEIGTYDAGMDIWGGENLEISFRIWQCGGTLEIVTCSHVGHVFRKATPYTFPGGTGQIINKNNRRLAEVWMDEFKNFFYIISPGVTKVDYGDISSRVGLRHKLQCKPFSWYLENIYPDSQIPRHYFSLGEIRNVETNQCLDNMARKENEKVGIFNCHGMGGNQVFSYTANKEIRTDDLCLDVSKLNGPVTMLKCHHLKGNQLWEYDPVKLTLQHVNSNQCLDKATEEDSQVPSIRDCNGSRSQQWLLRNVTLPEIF
UniProt Q13596, whole entry: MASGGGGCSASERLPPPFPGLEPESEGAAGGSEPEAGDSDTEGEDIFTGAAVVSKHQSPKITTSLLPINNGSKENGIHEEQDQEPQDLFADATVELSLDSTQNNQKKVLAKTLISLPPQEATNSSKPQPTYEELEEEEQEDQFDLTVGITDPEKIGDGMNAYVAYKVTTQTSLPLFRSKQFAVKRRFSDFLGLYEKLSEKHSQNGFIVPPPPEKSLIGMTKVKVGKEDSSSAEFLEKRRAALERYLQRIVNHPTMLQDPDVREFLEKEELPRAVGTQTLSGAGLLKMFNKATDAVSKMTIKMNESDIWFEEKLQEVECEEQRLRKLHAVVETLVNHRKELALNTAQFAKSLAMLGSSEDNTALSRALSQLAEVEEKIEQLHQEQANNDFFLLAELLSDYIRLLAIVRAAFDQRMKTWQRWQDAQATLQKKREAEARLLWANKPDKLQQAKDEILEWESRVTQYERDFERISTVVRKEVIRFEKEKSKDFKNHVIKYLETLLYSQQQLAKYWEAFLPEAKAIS
UniProt Q13433: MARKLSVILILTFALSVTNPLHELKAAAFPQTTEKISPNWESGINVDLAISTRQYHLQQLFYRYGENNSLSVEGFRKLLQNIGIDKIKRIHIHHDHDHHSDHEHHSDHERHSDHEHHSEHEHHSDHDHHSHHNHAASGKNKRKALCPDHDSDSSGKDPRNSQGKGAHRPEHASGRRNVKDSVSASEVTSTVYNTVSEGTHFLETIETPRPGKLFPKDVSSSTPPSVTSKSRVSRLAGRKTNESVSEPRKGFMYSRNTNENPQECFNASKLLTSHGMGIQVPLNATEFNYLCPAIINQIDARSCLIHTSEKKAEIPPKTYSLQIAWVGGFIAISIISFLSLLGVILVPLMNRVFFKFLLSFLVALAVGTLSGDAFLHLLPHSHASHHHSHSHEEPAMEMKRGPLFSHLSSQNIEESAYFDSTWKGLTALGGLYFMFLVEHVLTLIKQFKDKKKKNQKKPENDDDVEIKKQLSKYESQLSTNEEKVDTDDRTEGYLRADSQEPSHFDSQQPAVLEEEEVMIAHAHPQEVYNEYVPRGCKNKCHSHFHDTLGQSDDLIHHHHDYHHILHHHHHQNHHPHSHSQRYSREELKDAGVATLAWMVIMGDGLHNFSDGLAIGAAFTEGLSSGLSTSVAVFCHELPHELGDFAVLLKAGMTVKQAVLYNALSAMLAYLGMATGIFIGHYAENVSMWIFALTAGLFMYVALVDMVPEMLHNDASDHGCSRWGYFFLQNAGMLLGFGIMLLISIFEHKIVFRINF
UniProt Q04760: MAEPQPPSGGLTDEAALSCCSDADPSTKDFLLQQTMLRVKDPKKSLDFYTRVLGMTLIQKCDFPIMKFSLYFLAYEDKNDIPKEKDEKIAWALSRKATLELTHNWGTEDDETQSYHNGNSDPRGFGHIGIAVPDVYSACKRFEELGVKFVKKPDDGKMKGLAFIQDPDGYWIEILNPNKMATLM
UniProt Q06481, whole entry: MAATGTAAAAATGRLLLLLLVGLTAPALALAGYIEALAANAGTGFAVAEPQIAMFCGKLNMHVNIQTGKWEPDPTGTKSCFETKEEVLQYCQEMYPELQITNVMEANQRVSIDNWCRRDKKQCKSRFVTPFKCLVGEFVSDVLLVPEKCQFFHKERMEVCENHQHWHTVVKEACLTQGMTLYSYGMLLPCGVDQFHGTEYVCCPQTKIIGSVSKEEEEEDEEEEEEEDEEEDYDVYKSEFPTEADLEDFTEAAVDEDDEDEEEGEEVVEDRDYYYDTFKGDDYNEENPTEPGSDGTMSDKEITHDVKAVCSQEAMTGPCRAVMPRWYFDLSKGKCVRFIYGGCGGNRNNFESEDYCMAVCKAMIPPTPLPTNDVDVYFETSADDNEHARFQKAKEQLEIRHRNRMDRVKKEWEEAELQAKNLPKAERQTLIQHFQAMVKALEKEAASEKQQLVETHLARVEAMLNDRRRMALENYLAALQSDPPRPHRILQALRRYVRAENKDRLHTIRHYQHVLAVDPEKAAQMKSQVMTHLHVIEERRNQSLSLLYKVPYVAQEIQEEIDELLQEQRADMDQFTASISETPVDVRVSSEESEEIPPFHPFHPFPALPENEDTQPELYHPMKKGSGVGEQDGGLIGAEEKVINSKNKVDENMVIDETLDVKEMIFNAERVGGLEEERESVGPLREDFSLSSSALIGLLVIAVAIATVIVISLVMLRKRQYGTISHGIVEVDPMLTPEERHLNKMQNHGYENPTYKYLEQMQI

Compound: Nc1ncnc2c1ncn2[C@@H]1O[C@H](COP(=O)(O)OP(=O)(O)OP(=O)(O)O)[C@@H](O)[C@H]1O [adenosine triphosphate]
Assay: NP40-soluble protein abundance relative to vehicle (solubility fold change) (ratio); higher = more soluble protein in presence of ATP
How it was run: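 In three independent experiments, Jurkat crude lysate made by Dounce homogenisation was treated for 10 min at room temperature and then 3 min at 37 °C with eight concentrations ranging from 0.1 to 10 mM. It was then solubilised with 0.8% NP40 plus benzonase for 60 min at 4 °C and ultracentrifuged. The supernatant was TMT-labelled for LC-MS/MS, and each value is the fold change against the detergent-processed vehicle for the same replicate, using vsn-normalised intensities.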

Target	NP40-soluble protein abundance (concentration: 1mM)	NP40-soluble protein abundance (concentration: 2mM)	NP40-soluble protein abundance (concentration: 4mM)	NP40-soluble protein abundance (concentration: 6mM)	NP40-soluble protein abundance (concentration: 8mM)	NP40-soluble protein abundance (concentration: 10mM)
UniProt Q13367 and related entries	1.04 ± 0.081	1.01 ± 0.058	1.04 ± 0.084	1.03 ± 0.089	0.94 ± 0.074	1 ± 0.1
PSMD2 (UniProt Q13200)	0.949 ± 0.076	0.891 ± 0.05	0.854 ± 0.028	0.834 ± 0.03	0.898 ± 0.029	0.886 ± 0.064
SCRN1 (UniProt Q12765)	1.01 ± 0.069	1 ± 0.07	0.977 ± 0.072	1 ± 0.089	0.995 ± 0.08	0.979 ± 0.07
UniProt Q05932 and related entries	1.09 ± 0.062	1.04 ± 0.046	1.02 ± 0.11	1.01 ± 0.092	1.08 ± 0.082	1.02 ± 0.081
UniProt Q13362-2|Q13362-3|Q13362-4|Q13362 and related entries	0.951 ± 0.034	0.955 ± 0.04	0.9473 ± 0.0068	0.977 ± 0.01	0.947 ± 0.039	0.951 ± 0.049
UniProt Q02083 and related entries	0.977 ± 0.12	0.999 ± 0.026	0.949 ± 0.069	0.952 ± 0.017	0.919 ± 0.11	0.955 ± 0.065
UniProt Q13905 and related entries	0.971 ± 0.033	0.975 ± 0.022	0.98 ± 0.037	0.967 ± 0.062	0.955 ± 0.023	0.946 ± 0.019
UniProt Q13884 and related entries	0.976 ± 0.12	1.01 ± 0.044	1.06 ± 0.11	0.948 ± 0.15	1.02 ± 0.029	0.985 ± 0.056
DDX10 (UniProt Q13206)	0.961 ± 0.015	0.956 ± 0.046	0.929 ± 0.032	0.967 ± 0.041	0.964 ± 0.041	0.986 ± 0.067
DPYD (UniProt Q12882)	0.997 ± 0.031	1.03 ± 0.04	0.995 ± 0.027	0.971 ± 0.035	0.987 ± 0.025	0.984 ± 0.019
UniProt Q02535	0.933 ± 0.068	0.998 ± 0.034	0.918 ± 0.072	0.943 ± 0.065	0.918 ± 0.035	0.925 ± 0.015
PIN1 (UniProt Q13526)	0.9 ± 0.062	0.968 ± 0.026	0.939 ± 0.012	0.943 ± 0.021	0.925 ± 0.036	0.936 ± 0.025
UniProt Q13422 and related entries	1 ± 0.039	1.01 ± 0.054	1.03 ± 0.033	1.1 ± 0.07	1.08 ± 0.017	1.12 ± 0.036
FHL3 (UniProt Q13643)	1.05 ± 0.097	1.04 ± 0.096	1.11 ± 0.23	1.12 ± 0.17	1.11 ± 0.21	1.05 ± 0.18
UniProt Q13501 and related entries	0.987 ± 0.075	1 ± 0.083	0.948 ± 0.079	1.06 ± 0.22	0.897 ± 0.086	0.963 ± 0.065
MRPL49 (UniProt Q13405)	1.02 ± 0.11	0.942 ± 0.15	0.915 ± 0.1	0.947 ± 0.27	0.944 ± 0.21	0.882 ± 0.17
MTMR2 (UniProt Q13614)	1.04 ± 0.032	1.09 ± 0.064	1.1 ± 0.019	1.02 ± 0.057	1.05 ± 0.068	1.09 ± 0.038

Target	NP40-soluble protein abundance (concentration: 1mM)	NP40-soluble protein abundance (concentration: 2mM)	NP40-soluble protein abundance (concentration: 4mM)	NP40-soluble protein abundance (concentration: 6mM)	NP40-soluble protein abundance (concentration: 8mM)	NP40-soluble protein abundance (concentration: 10mM)
UniProt Q05519 and related entries	1.5 ± 0.11	1.5 ± 0.075	1.49 ± 0.12	1.57 ± 0.074	1.46 ± 0.11	1.45 ± 0.098
GALNT1 (UniProt Q10472)	1.04 ± 0.02	1.07 ± 0.063	1.06 ± 0.054	1.06 ± 0.059	1.03 ± 0.056	1.06 ± 0.023
PAK2 (UniProt Q13177)	0.959 ± 0.022	0.946 ± 0.022	0.904 ± 0.03	0.965 ± 0.036	0.912 ± 0.036	0.907 ± 0.026
SNX1 (UniProt Q13596)	0.977 ± 0.029	0.983 ± 0.013	0.982 ± 0.0089	0.984 ± 0.048	0.98 ± 0.013	0.973 ± 0.024
UniProt Q13574 and related entries	1.05 ± 0.044	1.05 ± 0.041	1.02 ± 0.03	0.995 ± 0.038	0.97 ± 0.027	0.978 ± 0.043
EIF2B5 (UniProt Q13144)	1.04 ± 0.063	1.01 ± 0.015	1.08 ± 0.18	1.05 ± 0.13	1.11 ± 0.11	1.05 ± 0.037
FKBP5 (UniProt Q13451)	0.975 ± 0.02	0.959 ± 0.022	0.96 ± 0.025	0.979 ± 0.044	0.954 ± 0.034	0.941 ± 0.043
UniProt Q12802 and related entries	1.05 ± 0.022	1.03 ± 0.019	1.06 ± 0.046	1.07 ± 0.05	1 ± 0.021	1.05 ± 0.03
UniProt Q00722 and related entries	0.955 ± 0.027	1.02 ± 0.09	1.04 ± 0.12	1.03 ± 0.086	1.01 ± 0.072	0.995 ± 0.074
SLC39A6 (UniProt Q13433)	0.945 ± 0.1	0.941 ± 0.049	0.957 ± 0.029	0.939 ± 0.054	0.88 ± 0.053	0.883 ± 0.026
UniProt Q04760 and related entries	0.884 ± 0.021	0.884 ± 0.012	0.895 ± 0.067	0.856 ± 0.032	0.874 ± 0.027	0.839 ± 0.093
UniProt Q06481 and related entries	1.05 ± 0.14	0.905 ± 0.089	1.06 ± 0.16	1.04 ± 0.023	1.04 ± 0.11	0.908 ± 0.12
UniProt Q12769 and related entries	1.08 ± 0.11	1.07 ± 0.09	1.1 ± 0.046	1 ± 0.11	1.16 ± 0.041	1.12 ± 0.035
ECH1 (UniProt Q13011)	0.968 ± 0.032	0.96 ± 0.042	0.91 ± 0.023	0.957 ± 0.048	0.94 ± 0.028	0.918 ± 0.037
UniProt Q13615 and related entries	0.994 ± 0.08	1.01 ± 0.087	0.994 ± 0.025	1.03 ± 0.029	0.975 ± 0.034	0.977 ± 0.052
UniProt Q13277 and related entries	0.954 ± 0.028	0.991 ± 0.029	0.961 ± 0.042	0.967 ± 0.023	0.928 ± 0.068	0.941 ± 0.03
